Results reported in paper PMC4235346.
The exact form of at least one protein or probe is not confirmed. For part of these data: Weaker means in comparison with the reference protein, sequence or condition of that experiment.

Tests used:
[1] = test system: InrS (Synechocystis PCC 6803); experiment: fluorescence anisotropy (stoichiometry); settings: apo, 5 mM EDTA, 1 mM DTT, aerobic, 1 uM DNA, inflection at ~4 uM protomer, 10 nM labelled DNA, 10 mM HEPES pH 7.0, 60 mM NaCl, 240 mM KCl, 25 C, anaerobic, 5 mM EDTA for apo or 1.2x (InrS) / 2.2x (ZiaR) metal excess, recombinant protein
[2] = test system: InrS (Synechocystis PCC 6803); experiment: fluorescence anisotropy (dissociation of pre-formed complex); settings: ZnSO4 titration, 1 uM InrS protomer, two Zn(II) per tetramer drive InrS from DNA, 10 nM labelled DNA, 10 mM HEPES pH 7.0, 60 mM NaCl, 240 mM KCl, 25 C, anaerobic, 5 mM EDTA for apo or 1.2x (InrS) / 2.2x (ZiaR) metal excess, recombinant protein
[3] = test system: InrS (Synechocystis PCC 6803); experiment: size exclusion co-migration; settings: apo, 5 mM EDTA, 2 mM DTT, aerobic, 40 uM protomer binds all of 10 uM DNA (one tetramer per DNA); recombinant protein

TCATCAATATCCCCCCTGGGGGCATAGAATAGA (double strand) [nrsDProFA (nrsD operator-promoter)]
binding result [1]: binds
binding result [2]: binds more weakly

TCATCAATATCCCCCCTGGGGGCATAGAATAGA (double strand) [nrsDProFA, unlabelled]
binding result [3]: binds
